Assay results taken from patent publication US20050256302A1, “Novel peptides having camp producing activity” (Japan Science and Technology Agency, priority 2002, published 2005).

Assay: Concentration of CRSP in tissues by radioimmunoassay
Parameters: species or system pig
Conditions: mean ± standard error (n = 3)

## CSCC[C@H](NC(=O)[C@H](CCCCN)NC(=O)[C@@H](NC(=O)[C@@H]1CCCN1C(=O)[C@H](CC(C)C)NC(=O)[C@H](CC(C)C)NC(=O)[C@H](CC(N)=O)NC(=O)[C@H](CO)NC(=O)[C@H](CCCNC(=N)N)NC(=O)[C@@H](NC(=O)[C@H](CCSC)NC(=O)[C@H](CO)NC(=O)CNC(=O)[C@H](CO)NC(=O)[C@H](CCCNC(=N)N)NC(=O)[C@H](CO)NC(=O)[C@H](CC(C)C)NC(=O)[C@H](CC(C)C)NC(=O)CNC(=O)[C@@H](NC(=O)[C@H](CC(C)C)NC(=O)[C@H](CCCNC(=N)N)NC(=O)[C@H](Cc1c[nH]cn1)NC(=O)[C@@H](NC(=O)[C@H](CCSC)NC(=O)[C@@H]1CSSC[C@H](NC(=O)[C@@H](N)CO)C(=O)N[C@@H](CC(N)=O)C(=O)N[C@@H]([C@@H](C)O)C(=O)N[C@@H](C)C(=O)N[C@@H]([C@@H](C)O)C(=O)N1)[C@@H](C)O)C(C)C)C(C)C)[C@@H](C)O)C(=O)NCC(=O)N[C@@H](Cc1ccccc1)C(=O)N[C@@H](CCCCN)C(=O)N[C@H](C(=O)N[C@@H](Cc1ccccc1)C(=O)NCC(N)=O)C(C)C [CRSP] (H-SCNTATCMTHRLVGLLSRSGSMVRSNLLPTKMGFKVFG-NH2; disulfide 2-7)
Pig Adrenal gland
  Immunoactivity of CRSP: 0.42 ± 0.05 pmol/g tissue
Pig Anterior pituitary
  Immunoactivity of CRSP: 14 ± 2 pmol/g tissue
Pig Aorta
  Immunoactivity of CRSP: 0.33 ± 0.19 pmol/g tissue
Pig Cardiac atrium
  Immunoactivity of CRSP: 0.20 ± 0.04 pmol/g tissue
Pig Cardiac ventricle
  Immunoactivity of CRSP: 0.21 ± 0.09 pmol/g tissue
Pig Caudatum
  Immunoactivity of CRSP: 1.3 ± 0.1 pmol/g tissue
Pig Cerebellum
  Immunoactivity of CRSP: 0.18 ± 0.02 pmol/g tissue
Pig Cerebral cortex
  Immunoactivity of CRSP: 0.29 ± 0.04 pmol/g tissue
Pig Hippocampus
  Immunoactivity of CRSP: 0.78 ± 0.16 pmol/g tissue
Pig Hypothalamus
  Immunoactivity of CRSP: 9.9 ± 1.2 pmol/g tissue
Pig Kidney/Cortex
  Immunoactivity of CRSP: 0.12 ± 0.01 pmol/g tissue
Pig Kidney/Medulla
  Immunoactivity of CRSP: 0.088 ± 0.039 pmol/g tissue
Pig Thyroid gland
  Immunoactivity of CRSP: 68 ± 39 pmol/g tissue

Where a SMILES comes first, the peptide text is derived from it. Bridges are numbered along the chain shown (N, C = ends).
